# Library screening results

By UniProt entry, the sequences of proteins in these tests, tags left out.
UniProt E9BF75, entry or part of it: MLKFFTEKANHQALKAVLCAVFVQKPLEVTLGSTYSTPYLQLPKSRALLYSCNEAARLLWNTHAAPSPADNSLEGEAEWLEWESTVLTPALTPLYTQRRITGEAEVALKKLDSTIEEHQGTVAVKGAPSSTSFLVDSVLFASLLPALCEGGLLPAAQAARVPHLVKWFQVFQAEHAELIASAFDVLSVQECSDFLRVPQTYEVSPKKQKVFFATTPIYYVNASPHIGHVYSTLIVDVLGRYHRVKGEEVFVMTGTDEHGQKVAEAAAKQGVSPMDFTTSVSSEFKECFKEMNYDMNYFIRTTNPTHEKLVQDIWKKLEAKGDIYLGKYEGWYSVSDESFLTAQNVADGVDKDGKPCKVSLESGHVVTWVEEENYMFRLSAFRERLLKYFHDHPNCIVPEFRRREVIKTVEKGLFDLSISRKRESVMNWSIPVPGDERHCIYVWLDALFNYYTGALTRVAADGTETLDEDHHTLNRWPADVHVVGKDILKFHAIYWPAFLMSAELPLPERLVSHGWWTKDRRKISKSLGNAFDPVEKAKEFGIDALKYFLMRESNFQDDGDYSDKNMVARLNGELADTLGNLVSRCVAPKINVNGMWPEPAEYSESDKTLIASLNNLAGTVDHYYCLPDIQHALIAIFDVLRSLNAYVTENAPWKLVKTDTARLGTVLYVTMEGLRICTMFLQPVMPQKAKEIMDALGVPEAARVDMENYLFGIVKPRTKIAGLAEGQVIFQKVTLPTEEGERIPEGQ

LdMetRS: 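Primary screen of methionyl-tRNA synthetase; the read-out is not stated. Target: Methionyl-tRNA synthetase (putative), Leishmania donovani (UniProt E9BF75). The test concentration is not given. Values are per cent inhibition. Size under these conditions: about 68,000 compounds, about 24 of them at 50% or above in at least one test.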
Mtb heat-shock: 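Assay on Mycobacterium tuberculosis, filed only as a heat shock assay from Cornell; the read-out is not stated. The concentration is filed as 10 mM, unlikely as a test dose, so the dose is not known. Direction is inferred from retests: higher values go with stronger inhibition. Size under these conditions: about 69,000 compounds, about 930 of them at 50% or above in at least one test.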

All values are in %. The record does not define 0% and 100%; most values in the screen are far below 50% and negative numbers occur (in some assays of this library far below -100). This is an unselected part of the compounds tested. A dash means the value is not listed here; it may have been measured.

compound,LdMetRS,Mtb heat-shock
COc1ccc(CNC[C@@]2(COc3cccnc3)C[C@@H](O)[C@@H](O)C2)cc1,-7.797%,-
COCCN1C[C@H]2CCN(C(=O)Nc3ccccc3C)CC[C@H]2S1(=O)=O,13.33%,-
CCN1CCCC(CN(C)c2nccc(-c3ccc(C)nc3C)n2)C1 (centres undefined),18.05%,0.9135%
CNC(=O)C1(CCCc2cnccn2)CCN1CCc1ccccc1 (centres undefined),17.08%,3.623%
O=S1(=O)c2cccnc2OC(COc2ccccc2)CN1CC1CC1 (centres undefined),0.2703%,-10.63%
CN(Cc1nccn1C)C1CCCN(Cc2noc(C3CC3)n2)C1 (centres undefined),4.789%,-4.085%
Cc1ccc(CN2Cc3nnn(C)c3C(COCC3CC3)C2)s1.O=C(O)C(F)(F)F (centres undefined),-,-11.83%
C=C1c2ccccc2C(=O)N1CCC(=O)N1CCNC(=O)C1,16.33%,2.689%
COc1c(C2CCCN2C(=O)c2ccc3c(c2)OCO3)c(C)nn1C (centres undefined),25.56%,-5.683%
CCOC1CCC2(CCN(C(=O)c3csnn3)CC2)c2ccccc21 (centres undefined),-1.648%,-2.745%
CSc1nccc(N2CCC(NCc3ccc4c(c3)OCO4)CC2)n1,18.21%,19.58%
CCS(=O)(=O)N1CCOC2(CCCN(c3ccc(C)nn3)C2)C1 (centres undefined),12.13%,-
CN(C)C(=O)c1c[nH]nc1C1CCN(S(=O)(=O)c2ccc(Cl)cc2)CC1,6.824%,-9.218%
CNC(=O)C1Cn2ccnc2C2(CCN(C(=O)NC3CCCC3)CC2)O1 (centres undefined),11.37%,5.282%
O=C([C@H]1C[C@H]2OCC[C@H]2N(Cc2ccoc2)C1)N1CCCO1,13.02%,-
Fc1ccc(CN2CCc3ncnc(C4CCOC4)c3CC2)cc1.O=C(O)C(F)(F)F (centres undefined),-,-46.97%
Cn1cccc1C(=O)NC1(C(=O)NCC2CC2)CCCC1,17.75%,-23.01%
CN(CC(=O)N1CCOC(CCc2ccccc2)C1)Cc1ccccn1 (centres undefined),19.87%,-15.12%
CN(C)CCNC(=O)c1ccc2c(-c3nccs3)noc2c1,13.78%,-7.634%
COc1ccccc1CC(C)(C)NC(=O)CN(C)C(C)C,18.68%,19.72%
CN1C[C@@H](N)C[C@H]1c1nc(-c2ccc3c(c2)OCO3)no1,13.53%,-5.641%
CCOCC1CN(c2ccc(C)nn2)Cc2nn(CC)cc21.O=C(O)C(F)(F)F.O=C(O)C(F)(F)F (centres undefined),-,5.556%
CN1CCN(CC2CC2)C(=O)C12CCN(C(=O)c1cnccn1)CC2,9.343%,-38.19%
Cc1nccn1CC1CCCN(Cc2ccc(-c3cccnc3)cc2)C1 (centres undefined),3.896%,-4.481%
Cc1cc(C(O)CCNS(=O)(=O)c2ccc(Cl)s2)c(C)o1 (centres undefined),17.18%,-0.3466%
COCCN(C(=O)c1cnccn1)c1nc2c(s1)CCc1c-2cnn1C,18.23%,3.087%
CN(C)c1cc(C(=O)NCCc2nnc(-c3ccco3)[nH]2)ccn1,17.61%,0.1774%
CCN(CC)C(=O)C1CCC2(CCNCC2)O1 (centres undefined),11.54%,-
CC(C)C(C)(C#N)NC(=O)Cn1cc(Cl)cn1 (centres undefined),15.78%,3.799%
C1CC(c2noc(C3CC3)n2)N(Cc2nnc(C3CC3)o2)C1 (centres undefined),6.032%,11%
CCNC(=O)NCC1(CN2CCOCC2)CCCCC1,10.44%,16.62%
O=C(NCCN1CCOCC1)c1cc(-c2ccc(Cl)s2)[nH]n1,9.926%,25.43%
O=C(NCCn1cccc1)c1c(O)cc(F)cc1F,19.89%,-5.099%
COc1ccc(C(=O)NCC(c2cccn2C)N2CCCC2)c(OC)c1 (centres undefined),16.67%,-4.912%
CCOCC(=O)NCC(Cc1cccc(F)c1)N1CCCCC1=O (centres undefined),11.78%,-31.95%
O=C(O)C(F)(F)F.[H][C@@]12CN(C(=O)CCOC)C[C@]1([H])C(=O)N(Cc1cccc(C)n1)C2,-,-12.42%
O=C(c1ccc(Cl)cc1)N1CCCn2nnc(Cn3cccn3)c2C1,5.576%,-7.825%
COc1ccc(CNC(C)c2cccc(Cl)c2)c(OC)c1OC (centres undefined),10.73%,-8.438%
CCc1cnc(CN(C)C2CCN(Cc3nnc(C4CC4)n3C)C2)o1 (centres undefined),26.11%,-4.954%
NCC1[C@H]2CN(CCc3ccccc3)C[C@@H]12 (some centres undefined),1.01%,-

Repeated from the top, 3 entries:

* COc1ccc(CNC[C@@]2(COc3cccnc3)C[C@@H](O)[C@@H](O)C2)cc1 : LdMetRS: -7.797%
* COCCN1C[C@H]2CCN(C(=O)Nc3ccccc3C)CC[C@H]2S1(=O)=O : LdMetRS: 13.33%
* CCN1CCCC(CN(C)c2nccc(-c3ccc(C)nc3C)n2)C1 (centres undefined) : LdMetRS: 18.05%; Mtb heat-shock: 0.9135%

Source: ChEMBL document CHEMBL3988442, “University of Dundee, Small-Polar-MMV Screening Library” (2021).